These results are taken from patent US20210228629A1 (CRISPR THERAPEUTICS, published 2021).

The experiment has as its target T1, biotinylated-BCMA (Acro Biosystems BC7-H82F0) (UniProt Q02223 1-54, biotinylated).
T1 construct: Soluble staining reagent, detected with PE-conjugated streptavidin
T1 sequence (looked up): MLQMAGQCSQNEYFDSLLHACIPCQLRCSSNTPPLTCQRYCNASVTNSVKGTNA
As to the kind of experiment: flow cytometry of edited T cells stained with biotinylated BCMA/streptavidin-PE, day 5. In general terms: A flow cytometer gives signals particle by particle.

B1: anti-TNP CAR with a 4-1BB co-stimulatory domain (other)
chain: DIVMTQSQKFMSTSVGDRVSITCKASQNVGTAVAWYQQKPGQSPKLLIYSASNRYTGVPDRFTGSGSGTDFTLTISNMQSEDLADYFCQQYSSYPLTFGAGTKLELKGSTSGSGKPGSGEGSTKGQVQLQQSGPELVKPGASVRISCKASGYTFTSYYIHWVKQRPGQGLEWIGWIYPGNVNTKYNEKFKGKATLTADKSSSTAYMQLSSLTSEDSAVYFCARNYGSSYGLAYWGQGTLVTVSAAAAFVPVFLPAKPTTTPAPRPPTPAPTIASQPLSLRPEACRPAAGGAVHTRGLDFACDIYIWAPLAGTCGVLLLSLVITLYCNHRNRFSVVKRGRKKLLYIFKQPFMRPVQTTQEEDGCSCRFPEEEEGGCELRVKFSRSADAPAYQQGQNQLYNELNLGRREEYDVLDKRRGRDPEMGGKPRRKNPQEGLYNELQKDKMAEAYSEIGMKGERRRGKGHDGLYQGLSTATKDTYDALHMQALPPR
notes: Control CAR on edited T cells; also called α-TNP/41BB/CD3ζ CAR; α-TNP/41BB/CD3ζ CAR TRAC 1
Regarding B1, the binding result is given as “no binding”.

B2: anti-TNP CAR with a CD28 co-stimulatory domain (other)
chain: DIVMTQSQKFMSTSVGDRVSITCKASQNVGTAVAWYQQKPGQSPKLLIYSASNRYTGVPDRFTGSGSGTDFTLTISNMQSEDLADYFCQQYSSYPLTFGAGTKLELKGSTSGSGKPGSGEGSTKGQVQLQQSGPELVKPGASVRISCKASGYTFTSYYIHWVKQRPGQGLEWIGWIYPGNVNTKYNEKFKGKATLTADKSSSTAYMQLSSLTSEDSAVYFCARNYGSSYGLAYWGQGTLVTVSAFVPVFLPAKPTTTPAPRPPTPAPTIASQPLSLRPEACRPAAGGAVHTRGLDFACDIYIWAPLAGTCGVLLLSLVITLYCNHRNRSKRSRLLHSDYMNMTPRRPGPTRKHYQPYAPPRDFAAYRSRVKFSRSADAPAYQQGQNQLYNELNLGRREEYDVLDKRRGRDPEMGGKPRRKNPQEGLYNELQKDKMAEAYSEIGMKGERRRGKGHDGLYQGLSTATKDTYDALHMQALPPR
notes: Control CAR on edited T cells; also called α-TNP/CD28/CD3ζ CAR; α-TNP/CD28/CD3ζ CAR TRAC 1
B2: the binding result is “no binding”.
